{
  "source": "patent US8546537B2",
  "about": "“Streptavidin having low immunogenicity and use thereof” (The University of Tokyo, priority 2009, dated 2013)",
  "assay": "Isothermal Titration calorimetry (ITC) of B5209B mouse-scFv-mcSA414 and biotin",
  "format": "binding",
  "conditions": "25° C., PBS",
  "data": [
    {"molecule": "B5209B mouse-scFv-mcSA414: fusion of anti-ROBO1 monoclonal antibody B5209B mouse scFv and mcSA414, SEQ ID NO: 16 (protein, listed as Mus sp.) MAEVQLVESGGGVVQPGGSLKLSCAASGFTFSTYDMSWVRQTPDKRLELVATINSNGGSTYYPDSVKGRFTSSRDNAKNILYLQMSSLKSEDTAMYYCAREALLRPPYYALDYWGQGTSVTVSSAGGGGSGGGGSGGGGSDILDIQMTQSPASLSASVGETVTITCGASENIYGALTWYQRKQGKSPQLLIYGAINLADDKSSRFSGSGSGRQYSLKISSLHPDDVATYYCQNVLSTPFTFGSGTKLEIKAAGSSGSGSAAEAGITGTWSNQLGSTFIVTAGADGALTGTYESAVGNAESRYVLTGRYDSAPATDGSGTALGWTVAWKNNSKNAHSATTWSGQYVGGADAKINTQWLLTSGTTQANAWKSTLVGHDTFTKVKPSAASGARHHHHHH", "values": [
      {"measurement": "amount of enthalpy change (ΔH)", "value": -25.5, "unit": "kJ/mol"},
      {"measurement": "amount of entropy change (ΔS)", "value": "less than the detection limit"}
    ]}
  ]
}
